Measurements reported in publication doi:10.1101/2020.04.03.023721.
These are yes or no findings as the source states them, for the method shown. Binding seen in cells or lysates may run through a third protein. Some entries that bind do so weakly or less than the wild type. For some assays here: Tags and fused reporters may be left off the sequences shown.

Chains of the proteins cited; added tags and fusions are not shown. Residues count along the entry.
UniProt Q96P20, residues 1-93: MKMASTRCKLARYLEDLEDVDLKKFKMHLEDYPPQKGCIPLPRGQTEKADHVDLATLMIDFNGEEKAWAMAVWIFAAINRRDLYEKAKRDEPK
UniProt P49023: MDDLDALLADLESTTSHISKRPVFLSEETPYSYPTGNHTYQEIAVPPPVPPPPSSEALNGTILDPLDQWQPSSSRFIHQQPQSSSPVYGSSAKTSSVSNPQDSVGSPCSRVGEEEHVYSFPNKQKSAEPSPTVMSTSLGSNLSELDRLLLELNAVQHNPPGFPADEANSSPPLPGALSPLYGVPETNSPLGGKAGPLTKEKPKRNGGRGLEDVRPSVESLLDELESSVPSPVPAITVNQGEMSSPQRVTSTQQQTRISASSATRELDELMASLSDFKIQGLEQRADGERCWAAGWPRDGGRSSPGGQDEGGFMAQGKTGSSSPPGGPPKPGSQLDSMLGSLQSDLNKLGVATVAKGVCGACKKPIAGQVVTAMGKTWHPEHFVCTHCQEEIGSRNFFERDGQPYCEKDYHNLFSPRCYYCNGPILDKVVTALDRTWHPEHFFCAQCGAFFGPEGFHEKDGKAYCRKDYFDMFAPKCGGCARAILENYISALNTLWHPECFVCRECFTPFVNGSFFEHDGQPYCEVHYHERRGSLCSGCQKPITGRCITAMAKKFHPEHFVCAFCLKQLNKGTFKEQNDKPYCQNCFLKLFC

Columns and labels:
Assay in all cases: co-IP
Flag-P2X7(31-595) = biological target: T1, Flag-P2X7(31-595) (UniProt Q99572)
T1 sequence: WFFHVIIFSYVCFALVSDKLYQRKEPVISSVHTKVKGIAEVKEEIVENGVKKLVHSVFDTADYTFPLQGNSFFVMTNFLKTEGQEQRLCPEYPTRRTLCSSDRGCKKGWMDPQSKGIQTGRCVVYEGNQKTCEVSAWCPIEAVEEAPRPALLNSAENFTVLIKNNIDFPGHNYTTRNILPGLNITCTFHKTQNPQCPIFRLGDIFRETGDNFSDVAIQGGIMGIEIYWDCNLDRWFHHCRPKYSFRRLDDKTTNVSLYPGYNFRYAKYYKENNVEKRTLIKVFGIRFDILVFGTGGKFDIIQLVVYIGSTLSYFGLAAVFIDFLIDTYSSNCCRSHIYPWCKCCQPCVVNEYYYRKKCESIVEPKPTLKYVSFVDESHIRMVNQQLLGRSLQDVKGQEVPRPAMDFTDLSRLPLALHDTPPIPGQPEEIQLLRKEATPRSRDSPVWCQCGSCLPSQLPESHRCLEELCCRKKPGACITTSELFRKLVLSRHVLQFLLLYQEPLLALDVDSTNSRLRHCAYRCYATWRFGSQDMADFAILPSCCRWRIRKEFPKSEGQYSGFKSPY

Flag-P2X7(335-595) = biological target: T2, Flag-P2X7(335-595) (UniProt Q99572)
T2 sequence: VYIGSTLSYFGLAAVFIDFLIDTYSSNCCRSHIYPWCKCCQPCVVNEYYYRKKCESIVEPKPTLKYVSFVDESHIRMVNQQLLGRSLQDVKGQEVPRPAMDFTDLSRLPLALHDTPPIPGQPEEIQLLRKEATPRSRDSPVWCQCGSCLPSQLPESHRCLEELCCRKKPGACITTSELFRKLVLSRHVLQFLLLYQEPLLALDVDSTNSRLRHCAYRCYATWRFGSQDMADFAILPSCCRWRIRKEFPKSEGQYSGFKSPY

Flag-P2X7(36-595) = biological target: T3, Flag-P2X7(36-595) (UniProt Q99572)
T3 sequence: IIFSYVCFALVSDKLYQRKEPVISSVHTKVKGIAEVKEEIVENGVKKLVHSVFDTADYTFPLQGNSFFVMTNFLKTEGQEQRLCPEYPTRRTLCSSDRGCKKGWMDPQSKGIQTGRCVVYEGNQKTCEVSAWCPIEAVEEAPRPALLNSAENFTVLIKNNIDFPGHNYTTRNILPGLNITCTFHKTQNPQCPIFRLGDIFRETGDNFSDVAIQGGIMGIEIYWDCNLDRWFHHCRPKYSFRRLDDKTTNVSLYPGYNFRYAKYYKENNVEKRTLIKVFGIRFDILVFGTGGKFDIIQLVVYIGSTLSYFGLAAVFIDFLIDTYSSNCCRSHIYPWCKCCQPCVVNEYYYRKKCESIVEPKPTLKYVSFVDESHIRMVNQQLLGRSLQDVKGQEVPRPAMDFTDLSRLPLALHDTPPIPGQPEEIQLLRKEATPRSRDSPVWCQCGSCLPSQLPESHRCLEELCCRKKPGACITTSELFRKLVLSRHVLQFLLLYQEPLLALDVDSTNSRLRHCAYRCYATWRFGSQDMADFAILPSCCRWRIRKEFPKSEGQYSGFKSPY

Flag-PYRIN (human) = Flag-PYRIN (human) (UniProt Q96P20)
Flag-UPS13 (human) = biological target: T4, Flag-UPS13 (human) (UniProt Q92995)
T4 sequence: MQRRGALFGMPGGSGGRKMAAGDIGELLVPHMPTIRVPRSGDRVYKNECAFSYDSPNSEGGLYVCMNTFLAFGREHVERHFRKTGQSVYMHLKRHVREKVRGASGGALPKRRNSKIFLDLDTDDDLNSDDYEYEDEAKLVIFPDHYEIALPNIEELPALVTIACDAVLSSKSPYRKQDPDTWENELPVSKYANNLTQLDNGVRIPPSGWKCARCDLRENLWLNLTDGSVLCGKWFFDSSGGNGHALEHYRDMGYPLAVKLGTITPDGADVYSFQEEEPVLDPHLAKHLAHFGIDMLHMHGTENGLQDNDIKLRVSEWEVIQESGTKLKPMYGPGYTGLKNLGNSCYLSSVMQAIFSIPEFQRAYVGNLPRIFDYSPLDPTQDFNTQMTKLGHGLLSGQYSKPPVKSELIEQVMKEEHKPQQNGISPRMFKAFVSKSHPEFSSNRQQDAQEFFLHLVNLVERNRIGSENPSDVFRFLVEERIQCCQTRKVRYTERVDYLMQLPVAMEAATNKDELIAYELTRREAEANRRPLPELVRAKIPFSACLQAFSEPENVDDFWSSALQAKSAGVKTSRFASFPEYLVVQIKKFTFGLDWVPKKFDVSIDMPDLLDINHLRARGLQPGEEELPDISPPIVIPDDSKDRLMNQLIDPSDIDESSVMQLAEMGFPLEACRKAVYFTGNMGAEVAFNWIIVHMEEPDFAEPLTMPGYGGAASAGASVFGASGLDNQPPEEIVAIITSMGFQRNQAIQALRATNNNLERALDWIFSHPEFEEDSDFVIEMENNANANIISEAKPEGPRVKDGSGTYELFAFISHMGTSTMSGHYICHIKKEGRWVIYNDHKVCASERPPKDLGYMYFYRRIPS

HA-Paxillin (from UniProt P49023 1-591)
binding (Flag-P2X7(31-595)): no binding | binding (Flag-P2X7(335-595)): no binding | binding (Flag-P2X7(36-595)): no binding | binding (Flag-PYRIN (human)): no binding | binding (Flag-UPS13 (human)): binds
